Experimental data published in the supplement of paper PMC10849652.
Some of the results follow.

Amino acid sequences for entries named in this document (tags omitted). A change or cut given only in a name is not applied to a line headed by its entry.
UniProt Q5T6V5: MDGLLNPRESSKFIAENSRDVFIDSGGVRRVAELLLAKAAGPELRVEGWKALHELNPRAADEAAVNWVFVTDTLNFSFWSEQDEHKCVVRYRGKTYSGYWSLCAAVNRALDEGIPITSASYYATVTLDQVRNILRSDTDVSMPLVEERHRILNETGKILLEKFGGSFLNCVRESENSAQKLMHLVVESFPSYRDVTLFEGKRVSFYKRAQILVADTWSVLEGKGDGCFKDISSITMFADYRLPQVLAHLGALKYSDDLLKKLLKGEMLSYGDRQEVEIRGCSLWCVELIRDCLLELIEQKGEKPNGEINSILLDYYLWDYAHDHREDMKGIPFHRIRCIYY
UniProt Q13137: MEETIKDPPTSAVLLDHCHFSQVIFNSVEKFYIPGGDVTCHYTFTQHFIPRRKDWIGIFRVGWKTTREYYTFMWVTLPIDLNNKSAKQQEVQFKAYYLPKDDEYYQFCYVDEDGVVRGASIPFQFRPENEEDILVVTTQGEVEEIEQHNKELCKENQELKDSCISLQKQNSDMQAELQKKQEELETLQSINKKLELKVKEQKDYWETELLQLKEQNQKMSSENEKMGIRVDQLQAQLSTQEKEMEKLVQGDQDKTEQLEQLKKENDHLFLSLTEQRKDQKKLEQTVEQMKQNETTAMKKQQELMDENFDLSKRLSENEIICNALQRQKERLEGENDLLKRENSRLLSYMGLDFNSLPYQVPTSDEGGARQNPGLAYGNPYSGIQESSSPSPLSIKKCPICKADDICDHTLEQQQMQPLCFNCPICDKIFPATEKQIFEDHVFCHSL
UniProt O75155: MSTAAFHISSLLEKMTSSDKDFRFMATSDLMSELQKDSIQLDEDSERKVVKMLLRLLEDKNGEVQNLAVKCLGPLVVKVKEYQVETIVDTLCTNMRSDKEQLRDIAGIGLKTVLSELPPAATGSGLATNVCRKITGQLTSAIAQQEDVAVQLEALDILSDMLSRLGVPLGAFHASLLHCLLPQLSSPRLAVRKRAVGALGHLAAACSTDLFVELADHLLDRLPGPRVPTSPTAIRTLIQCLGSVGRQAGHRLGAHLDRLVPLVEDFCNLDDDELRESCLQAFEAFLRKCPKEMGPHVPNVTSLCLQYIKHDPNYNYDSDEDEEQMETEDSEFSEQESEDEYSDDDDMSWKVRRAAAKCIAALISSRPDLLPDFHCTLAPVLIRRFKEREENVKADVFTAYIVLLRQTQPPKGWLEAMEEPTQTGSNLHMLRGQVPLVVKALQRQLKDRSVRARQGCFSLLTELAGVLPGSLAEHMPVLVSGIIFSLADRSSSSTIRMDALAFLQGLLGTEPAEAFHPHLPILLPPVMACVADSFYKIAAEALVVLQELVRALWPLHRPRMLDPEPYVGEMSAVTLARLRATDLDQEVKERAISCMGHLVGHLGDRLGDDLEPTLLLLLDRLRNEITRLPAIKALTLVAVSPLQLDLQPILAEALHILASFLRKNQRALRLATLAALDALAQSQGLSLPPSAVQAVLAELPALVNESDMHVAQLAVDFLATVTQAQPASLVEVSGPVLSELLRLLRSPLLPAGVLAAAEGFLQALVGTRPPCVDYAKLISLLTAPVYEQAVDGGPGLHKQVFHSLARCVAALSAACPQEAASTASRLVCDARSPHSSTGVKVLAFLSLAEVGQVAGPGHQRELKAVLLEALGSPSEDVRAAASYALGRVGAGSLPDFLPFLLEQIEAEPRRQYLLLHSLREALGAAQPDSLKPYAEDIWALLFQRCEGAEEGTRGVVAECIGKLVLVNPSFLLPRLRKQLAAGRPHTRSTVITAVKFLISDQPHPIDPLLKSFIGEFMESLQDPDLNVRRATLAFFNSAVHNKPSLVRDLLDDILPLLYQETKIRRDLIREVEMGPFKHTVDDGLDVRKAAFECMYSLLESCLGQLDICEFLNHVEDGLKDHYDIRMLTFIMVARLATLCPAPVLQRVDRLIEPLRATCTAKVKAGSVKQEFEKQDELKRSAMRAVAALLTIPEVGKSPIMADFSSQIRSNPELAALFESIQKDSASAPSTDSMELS
UniProt Q96GQ5: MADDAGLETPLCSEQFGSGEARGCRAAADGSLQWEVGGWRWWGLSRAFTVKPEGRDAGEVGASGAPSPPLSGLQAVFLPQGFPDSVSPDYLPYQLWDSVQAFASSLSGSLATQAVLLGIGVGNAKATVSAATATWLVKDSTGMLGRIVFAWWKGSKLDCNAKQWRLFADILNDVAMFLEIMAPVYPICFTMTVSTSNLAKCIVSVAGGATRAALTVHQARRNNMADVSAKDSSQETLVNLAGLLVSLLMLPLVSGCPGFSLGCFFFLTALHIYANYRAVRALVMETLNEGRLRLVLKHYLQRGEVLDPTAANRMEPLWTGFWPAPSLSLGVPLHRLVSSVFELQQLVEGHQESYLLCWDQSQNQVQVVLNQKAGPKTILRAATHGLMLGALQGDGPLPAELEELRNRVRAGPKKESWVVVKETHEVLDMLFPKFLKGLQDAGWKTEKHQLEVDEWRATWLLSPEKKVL
UniProt Q6P1X6: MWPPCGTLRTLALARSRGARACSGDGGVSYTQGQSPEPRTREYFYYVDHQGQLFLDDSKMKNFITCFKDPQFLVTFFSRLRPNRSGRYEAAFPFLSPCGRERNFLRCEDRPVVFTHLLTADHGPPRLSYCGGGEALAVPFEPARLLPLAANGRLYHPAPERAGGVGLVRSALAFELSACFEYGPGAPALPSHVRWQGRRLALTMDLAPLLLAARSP
UniProt Q8N8R5: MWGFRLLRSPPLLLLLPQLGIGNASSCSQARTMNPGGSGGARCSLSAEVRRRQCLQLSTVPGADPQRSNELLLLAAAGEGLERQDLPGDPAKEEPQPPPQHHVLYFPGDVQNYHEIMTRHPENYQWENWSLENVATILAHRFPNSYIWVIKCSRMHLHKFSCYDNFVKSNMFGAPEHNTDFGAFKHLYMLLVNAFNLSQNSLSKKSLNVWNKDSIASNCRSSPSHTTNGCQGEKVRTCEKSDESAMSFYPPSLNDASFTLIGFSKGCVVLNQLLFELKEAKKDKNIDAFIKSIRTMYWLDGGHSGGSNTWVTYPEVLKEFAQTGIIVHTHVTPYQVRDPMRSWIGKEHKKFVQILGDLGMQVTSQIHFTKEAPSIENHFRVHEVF
UniProt Q8N1Q1: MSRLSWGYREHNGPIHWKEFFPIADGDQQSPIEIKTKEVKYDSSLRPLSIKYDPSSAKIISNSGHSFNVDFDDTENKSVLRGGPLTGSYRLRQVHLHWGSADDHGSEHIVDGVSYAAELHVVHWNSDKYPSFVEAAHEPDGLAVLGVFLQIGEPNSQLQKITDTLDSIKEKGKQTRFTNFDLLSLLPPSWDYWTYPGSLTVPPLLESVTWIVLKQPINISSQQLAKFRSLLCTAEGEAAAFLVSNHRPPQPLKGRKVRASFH
UniProt O95873: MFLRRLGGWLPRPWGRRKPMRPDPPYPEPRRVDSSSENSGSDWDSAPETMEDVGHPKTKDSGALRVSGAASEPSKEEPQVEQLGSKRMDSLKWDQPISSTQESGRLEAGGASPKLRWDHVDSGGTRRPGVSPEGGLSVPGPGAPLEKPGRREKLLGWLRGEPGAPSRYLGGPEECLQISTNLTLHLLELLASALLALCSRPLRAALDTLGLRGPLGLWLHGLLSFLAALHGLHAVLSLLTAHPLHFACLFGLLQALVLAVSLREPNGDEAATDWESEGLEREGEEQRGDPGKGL
UniProt P22676: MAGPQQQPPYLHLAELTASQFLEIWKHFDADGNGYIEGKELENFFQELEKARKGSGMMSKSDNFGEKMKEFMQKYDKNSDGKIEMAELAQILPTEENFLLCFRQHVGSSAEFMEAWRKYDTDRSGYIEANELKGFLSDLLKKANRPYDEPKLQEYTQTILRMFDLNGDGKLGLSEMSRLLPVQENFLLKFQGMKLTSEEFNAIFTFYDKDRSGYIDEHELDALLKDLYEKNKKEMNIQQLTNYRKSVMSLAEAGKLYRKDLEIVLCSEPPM
UniProt Q6ZSJ8: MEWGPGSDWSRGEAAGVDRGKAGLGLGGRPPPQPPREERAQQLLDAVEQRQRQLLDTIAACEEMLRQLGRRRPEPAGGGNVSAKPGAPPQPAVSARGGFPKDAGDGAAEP
UniProt Q8N5I9: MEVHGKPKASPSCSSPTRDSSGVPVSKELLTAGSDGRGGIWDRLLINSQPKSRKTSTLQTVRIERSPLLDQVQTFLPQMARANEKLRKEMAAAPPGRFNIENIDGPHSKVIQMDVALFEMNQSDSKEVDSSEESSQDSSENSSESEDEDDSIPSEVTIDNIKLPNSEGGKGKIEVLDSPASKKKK
UniProt Q8WUQ7: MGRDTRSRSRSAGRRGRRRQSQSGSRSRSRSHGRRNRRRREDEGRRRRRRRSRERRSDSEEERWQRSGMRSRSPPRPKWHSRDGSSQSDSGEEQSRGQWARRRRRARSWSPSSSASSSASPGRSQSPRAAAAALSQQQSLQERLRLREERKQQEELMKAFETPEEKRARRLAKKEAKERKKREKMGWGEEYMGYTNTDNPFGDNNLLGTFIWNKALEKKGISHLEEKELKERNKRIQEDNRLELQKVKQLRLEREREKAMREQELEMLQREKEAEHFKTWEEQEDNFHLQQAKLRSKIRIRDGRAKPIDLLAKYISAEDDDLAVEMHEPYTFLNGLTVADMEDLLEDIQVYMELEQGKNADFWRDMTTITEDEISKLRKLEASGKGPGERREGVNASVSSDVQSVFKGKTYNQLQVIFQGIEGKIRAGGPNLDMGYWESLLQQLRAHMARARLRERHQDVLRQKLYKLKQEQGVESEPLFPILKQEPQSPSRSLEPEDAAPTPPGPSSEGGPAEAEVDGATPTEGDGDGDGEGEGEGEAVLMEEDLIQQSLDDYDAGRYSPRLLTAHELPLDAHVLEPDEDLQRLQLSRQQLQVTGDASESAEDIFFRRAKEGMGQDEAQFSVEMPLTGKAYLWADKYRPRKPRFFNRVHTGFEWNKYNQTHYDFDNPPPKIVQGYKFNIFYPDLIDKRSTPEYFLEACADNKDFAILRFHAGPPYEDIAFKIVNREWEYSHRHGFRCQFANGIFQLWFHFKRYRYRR
UniProt Q9HAS0: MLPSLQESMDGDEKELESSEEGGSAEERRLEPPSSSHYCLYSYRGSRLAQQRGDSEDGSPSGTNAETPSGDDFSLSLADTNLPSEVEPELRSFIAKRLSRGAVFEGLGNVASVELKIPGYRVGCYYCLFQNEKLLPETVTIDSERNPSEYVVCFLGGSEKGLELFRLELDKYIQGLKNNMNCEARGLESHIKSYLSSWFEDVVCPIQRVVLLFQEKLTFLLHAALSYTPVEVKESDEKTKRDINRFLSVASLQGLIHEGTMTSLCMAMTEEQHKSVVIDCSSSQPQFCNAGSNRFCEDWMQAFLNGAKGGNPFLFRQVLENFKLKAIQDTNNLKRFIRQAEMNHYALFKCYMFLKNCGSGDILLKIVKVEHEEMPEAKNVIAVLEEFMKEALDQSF
UniProt P04003: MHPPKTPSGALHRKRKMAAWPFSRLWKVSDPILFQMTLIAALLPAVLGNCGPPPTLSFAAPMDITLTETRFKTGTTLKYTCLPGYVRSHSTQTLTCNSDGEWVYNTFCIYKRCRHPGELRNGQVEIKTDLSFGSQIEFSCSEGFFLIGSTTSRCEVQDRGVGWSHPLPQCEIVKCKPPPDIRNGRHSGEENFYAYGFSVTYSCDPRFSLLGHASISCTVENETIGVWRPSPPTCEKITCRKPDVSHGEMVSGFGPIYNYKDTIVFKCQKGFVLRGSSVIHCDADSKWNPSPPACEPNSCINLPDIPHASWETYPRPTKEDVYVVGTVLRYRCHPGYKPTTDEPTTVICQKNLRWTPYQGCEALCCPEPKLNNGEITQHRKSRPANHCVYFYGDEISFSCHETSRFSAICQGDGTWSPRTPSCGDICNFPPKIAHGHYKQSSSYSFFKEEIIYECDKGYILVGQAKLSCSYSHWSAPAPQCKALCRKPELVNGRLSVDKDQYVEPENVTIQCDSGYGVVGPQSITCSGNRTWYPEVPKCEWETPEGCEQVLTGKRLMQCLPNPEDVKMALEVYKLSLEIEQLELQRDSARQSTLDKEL
UniProt O43852: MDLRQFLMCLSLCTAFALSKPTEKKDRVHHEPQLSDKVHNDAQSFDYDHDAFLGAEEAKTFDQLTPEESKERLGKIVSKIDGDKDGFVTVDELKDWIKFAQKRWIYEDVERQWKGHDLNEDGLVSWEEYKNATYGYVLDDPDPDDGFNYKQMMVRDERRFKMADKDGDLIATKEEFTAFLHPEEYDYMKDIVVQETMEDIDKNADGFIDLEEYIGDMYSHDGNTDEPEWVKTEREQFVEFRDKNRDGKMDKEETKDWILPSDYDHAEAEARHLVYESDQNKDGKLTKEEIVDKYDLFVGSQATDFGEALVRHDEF
UniProt Q9H3J6: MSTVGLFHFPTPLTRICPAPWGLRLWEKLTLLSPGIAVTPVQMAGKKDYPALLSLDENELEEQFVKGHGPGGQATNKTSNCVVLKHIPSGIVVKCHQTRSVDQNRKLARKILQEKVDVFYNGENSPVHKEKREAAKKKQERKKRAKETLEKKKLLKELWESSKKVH

Key:
Assay in all cases: log2 fold change, soluble protein after heating vs DMSO (PISA); higher = thermal stabilisation; K562 lysate, 10 uM; active = over 0.2 and 3.5 SD of the protein, either way, in both replicates (recomputed)
nilotinib = compound: Cc1cn(-c2cc(NC(=O)c3ccc(C)c(Nc4nccc(-c5cccnc5)n4)c3)cc(C(F)(F)F)c2)cn1 [nilotinib]
Method in brief: (§1)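 A 30 min treatment with 10 μM compound was applied to crude K562 extract at 1 mg/mL protein in PBS pH 7.4 with 1 mM MgCl2. Heating for 3 min spanned 48°C-58°C, after which aliquots were pooled, adjusted to 0.5% NP-40 at 4°C and spun at 21,000xg for 90 min. TMTpro 16plex LC-MS/MS of the supernatant, with channel sums equalised, gave values recorded as log-two fold change in thermal stability against solvent controls, from duplicates.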

[1] = compound: Cc1nc(Nc2n[nH]c3c2CN(C(=O)N[C@H](CN(C)C)c2ccccc2)C3(C)C)c2sccc2n1
Method in brief: as §1

dasatinib = compound: Cc1nc(Nc2ncc(C(=O)Nc3c(C)cccc3Cl)s2)cc(N2CCN(CCO)CC2)n1 [dasatinib]
Method in brief: as §1

[2] = compound: Cc1ncc(-c2ccnc(Nc3ccc(S(C)(=O)=O)cc3)n2)n1C(C)C
Method in brief: as §1

[3] = compound: Cn1cc(-c2ccc3c(c2)CCN3C(=O)Cc2cccc(C(F)(F)F)c2)c2c(N)ncnc21
Method in brief: as §1

quisinostat = compound: Cn1cc(CNCC2CCN(c3ncc(C(=O)NO)cn3)CC2)c2ccccc21 [quisinostat]
Method in brief: as §1

tipifarnib = compound: Cn1cncc1[C@@](N)(c1ccc(Cl)cc1)c1ccc2c(c1)c(-c1cccc(Cl)c1)cc(=O)n2C [tipifarnib]
Method in brief: as §1

[4] = compound: NC(=O)Nc1cc(-c2cccc(F)c2)sc1C(=O)N[C@H]1CCCNC1
Method in brief: as §1

[5] = compound: NC(=O)c1cnc(N[C@@H]2CCCC[C@@H]2N)nc1Nc1cccc(-n2nccn2)c1
Method in brief: as §1

[6] = compound: NC1(c2ccc(-c3nc4ccn5c(=O)[nH]nc5c4cc3-c3ccccc3)cc2)CCC1
Method in brief: as §1

Measured: log2 fold change

C9orf64 (UniProt Q5T6V5)
inactive: nilotinib -0.007 | [1] -0.001 | dasatinib -0.067 | [2] -0.011 | [3] 0.024 | quisinostat 0.039 | tipifarnib 0.012 | [4] -0.022 | [5] 0.008 | [6] -0.007

CALCOCO2 isoform 4 (UniProt Q13137)
inactive: nilotinib -0.018 | [1] 0.035 | dasatinib -0.005 | [2] 0.035 | [3] 0.024 | quisinostat 0 | tipifarnib 0.021 | [4] 0.009 | [5] 0.003 | [6] -0.008

C6orf89 isoform 2 (UniProt Q6UWU4)
inactive: nilotinib 0.009 | [1] 0.102 | dasatinib 0.017 | [2] 0.018 | [3] -0.041 | quisinostat 0.081 | tipifarnib -0.091 | [4] -0.02 | [5] 0.063 | [6] 0.027

CAND2 (UniProt O75155)
inactive: nilotinib -0.001 | [1] -0.007 | dasatinib -0.01 | [2] 0.001 | [3] -0.005 | quisinostat 0.003 | tipifarnib 0.004 | [4] -0.007 | [5] -0.008 | [6] 0.008

C16orf58 (UniProt Q96GQ5)
inactive: nilotinib -0.016 | [1] -0.011 | dasatinib -0.075 | [2] 0.033 | [3] -0.042 | quisinostat 0.06 | tipifarnib -0.05 | [4] -0.011 | [5] 0.021 | [6] -0.042

C2CD5 isoform 3 (UniProt Q86YS7)
inactive: nilotinib -0.036 | [1] 0.074 | dasatinib -0.053 | [2] 0.046 | [3] 0.01 | quisinostat 0.013 | tipifarnib -0.053 | [4] 0.024 | [5] 0.01 | [6] -0.044

C19orf53 (UniProt Q9UNZ5)
inactive: nilotinib -0.022 | [1] 0.058 | dasatinib 0.062 | [2] -0.053 | [3] -0.004 | quisinostat -0.019 | tipifarnib -0.029 | [4] -0.027 | [5] 0.031 | [6] 0.141

C8orf82 (UniProt Q6P1X6)
inactive: nilotinib 0.021 | [1] -0.076 | dasatinib -0.022 | [2] 0.053 | [3] 0.04 | quisinostat -0.024 | tipifarnib 0.044 | [4] -0.013 | [5] 0.006 | [6] -0.041

C2orf69 (UniProt Q8N8R5)
inactive: nilotinib 0.023 | [1] 0.009 | dasatinib 0.085 | [2] 0.022 | [3] 0.028 | quisinostat -0.04 | tipifarnib 0.046 | [4] 0.008 | [5] -0.027 | [6] 0.054

CA13 (UniProt Q8N1Q1)
inactive: nilotinib 0.132 | [1] -0.059 | dasatinib -0.017 | [2] 0.055 | [3] 0.025 | quisinostat -0.008 | tipifarnib -0.026 | [4] 0.062 | [5] -0.003 | [6] -0.009

C6orf47 (UniProt O95873)
inactive: nilotinib 0.028 | [1] 0.062 | dasatinib -0.009 | [2] 0.048 | [3] -0.004 | quisinostat -0.04 | tipifarnib 0.028 | [4] -0.011 | [5] 0.022 | [6] -0.072

C5orf51 (UniProt A6NDU8)
inactive: nilotinib -0.061 | [1] 0.006 | dasatinib -0.029 | [2] 0.017 | [3] 0.02 | quisinostat -0.066 | tipifarnib 0.026 | [4] 0.1 | [5] 0.002 | [6] -0.023

Reprinted from the results shown (2 entries):
C8orf82 (UniProt Q6P1X6)
inactive: nilotinib 0.021 | [1] -0.076 | dasatinib -0.022 | [2] 0.053 | [3] 0.04 | quisinostat -0.024 | tipifarnib 0.044 | [4] -0.013 | [5] 0.006 | [6] -0.041

C2orf69 (UniProt Q8N8R5)
inactive: nilotinib 0.023 | [1] 0.009 | dasatinib 0.085 | [2] 0.022 | [3] 0.028 | quisinostat -0.04 | tipifarnib 0.046 | [4] 0.008 | [5] -0.027 | [6] 0.054

Continuation.

CALB2 (UniProt P22676)
inactive: nilotinib 0.098 | [1] -0.085 | dasatinib -0.037 | [2] 0.056 | [3] 0.016 | quisinostat 0.091 | tipifarnib -0.079 | [4] -0.006 | [5] -0.004 | [6] 0.046

CAAP1 (UniProt Q9H8G2)
inactive: nilotinib -0.044 | [1] 0.046 | dasatinib -0.009 | [2] 0.011 | [3] -0.088 | quisinostat -0.077 | tipifarnib 0.03 | [4] -0.117 | [5] 0.055 | [6] -0.033

C1orf122 (UniProt Q6ZSJ8)
inactive: nilotinib 0.058 | [1] -0.018 | dasatinib -0.033 | [2] 0.065 | [3] -0.097 | quisinostat -0.068 | tipifarnib 0.124 | [4] -0.008 | [5] 0.002 | [6] 0.022

C12orf45 (UniProt Q8N5I9)
inactive: nilotinib -0.026 | [1] -0.003 | dasatinib 0.019 | [2] -0.017 | [3] 0.035 | quisinostat -0.019 | tipifarnib -0.014 | [4] -0.015 | [5] 0 | [6] 0.024

C11orf98 (UniProt E9PRG8)
inactive: nilotinib -0.017 | [1] 0.032 | dasatinib -0.007 | [2] 0.007 | [3] 0.011 | quisinostat -0.013 | tipifarnib 0.008 | [4] 0.02 | [5] 0 | [6] -0.01

C1orf109 (UniProt Q9NX04)
inactive: nilotinib -0.092 | [1] -0.053 | dasatinib -0.108 | [2] 0.02 | [3] 0.229 | quisinostat -0.03 | tipifarnib -0.008 | [4] -0.034 | [5] 0.081 | [6] -0.325

CACTIN isoform 2 (UniProt Q8WUQ7)
inactive: nilotinib 0 | [1] 0.012 | dasatinib -0.013 | [2] 0.011 | [3] -0.004 | quisinostat -0.027 | tipifarnib 0.066 | [4] -0.053 | [5] 0.002 | [6] 0.015

CAMK1 (UniProt Q14012)
inactive: nilotinib -0.086 | [1] 0.04 | dasatinib 0.021 | [2] 0.064 | [3] 0.008 | quisinostat -0.12 | tipifarnib -0.071 | [4] 0.194 | [5] 0.018 | [6] -0.023

CAPZA1 (UniProt P52907)
inactive: nilotinib 0.026 | [1] 0.001 | dasatinib 0.004 | [2] 0.003 | [3] -0.051 | quisinostat -0.017 | tipifarnib -0.012 | [4] 0.025 | [5] -0.014 | [6] 0.016

C3 (UniProt P01024)
inactive: nilotinib 0.001 | [1] 0.027 | dasatinib 0.069 | [2] -0.006 | [3] -0.022 | quisinostat -0.085 | tipifarnib 0.027 | [4] -0.025 | [5] -0.066 | [6] 0.012

C17orf75 (UniProt Q9HAS0)
inactive: nilotinib -0.036 | [1] 0.006 | dasatinib 0.046 | [2] 0 | [3] 0.04 | quisinostat -0.062 | tipifarnib -0.071 | [4] -0.005 | [5] -0.019 | [6] 0.002

C4BPA (UniProt P04003)
inactive: nilotinib 0.042 | [1] 0.036 | dasatinib -0.12 | [2] -0.047 | [3] -0.259 | quisinostat -0.129 | tipifarnib -0.009 | [4] -0.003 | [5] 0.059 | [6] 0.044

CALU isoform 4 (UniProt O43852)
inactive: nilotinib -0.014 | [1] 0.011 | dasatinib 0.051 | [2] 0.015 | [3] 0.043 | quisinostat -0.066 | tipifarnib 0.054 | [4] 0.017 | [5] -0.003 | [6] 0.013

C12orf65 (UniProt Q9H3J6)
inactive: nilotinib -0.022 | [1] 0.046 | dasatinib 0 | [2] 0.027 | [3] 0.021 | quisinostat -0.022 | tipifarnib 0.029 | [4] -0.023 | [5] 0.023 | [6] 0.03

C7orf50 (UniProt Q9BRJ6)
inactive: nilotinib -0.028 | [1] -0.023 | dasatinib -0.043 | [2] -0.051 | [3] 0.019 | quisinostat -0.148 | tipifarnib 0.022 | [4] 0.034 | [5] 0.008 | [6] -0.008

C20orf27 isoform 2 (UniProt Q9GZN8)
inactive: nilotinib 0.012 | [1] -0.065 | dasatinib -0.015 | [2] -0.026 | [3] -0.108 | quisinostat 0.045 | tipifarnib 0.013 | [4] 0.01 | [5] -0.097 | [6] -0.053
